The list shows only some results of the screen, not a fair sample: it is rich in T/C values a quarter to a half above the control, in often repeated tests (any T/C) and in doses without a T/C. Further doses and runs are listed elsewhere. T/C gives the treated animals as a percentage of the vehicle group. Some entries give survivors of the animals treated and no T/C: the source holds a T/C of zero for them, seemingly a mark for toxic or unscored doses. Some doses without a T/C left all or most animals alive at the check, yet need not have been tolerated: survival well below the control is almost never listed, so the zero probably covers shortened survival too. Counts of survivors are from the toxicity check (mostly the fifth day) where no day follows; animals may have died later. Schedules are NCI's codes, read here as Q, the interval in days (D) or hours (H), X, the number of doses. Some entries were tested several times; the results are listed from low to high. Some schedule codes hold Z or #, which are not explained here. For survival time, the PubChem record calls one and a half times the control and up active, and a quarter to a half above the control has no call in these data; cut-offs in other NCI protocols can differ. Marks such as (2×) give the number of equal values in this list. Some T/C values are followed by the survivors on the day toxicity was checked, most often the fifth; without a count, all were alive then.
Tested on: L1210 leukemia ip in BDF1 mice, survival T/C
Assay: NCI In Vivo Anticancer Drug Screen. Data for tumor model L1210 Leukemia (intraperitoneal) in B6D2F1 (BDF1) mice
Conditions: T/C endpoint: mean survival time, higher T/C = longer survival
[1] = dose: 100.0 mg/kg/injection, schedule: Q04DX002 (ip), vehicle: saline
[2] = dose: 200.0 mg/kg/injection, schedule: Q04DX002 (ip), vehicle: saline
[3] = dose: 400.0 mg/kg/injection, schedule: Q04DX002 (ip), vehicle: saline
[4] = dose: 40.0 mg/kg/injection, schedule: Q01DX009 (ip), vehicle: saline
[5] = dose: 200.0 mg/kg/injection, schedule: Q04DX003 (ip), vehicle: saline
[6] = dose: 400.0 mg/kg/injection, schedule: Q04DX003 (ip), vehicle: saline
[7] = dose: 20.0 mg/kg/injection, schedule: Q01DX009 (ip), vehicle: saline
[8] = dose: 400.0 mg/kg/injection, schedule: Q01DX001 (ip), vehicle: saline
[9] = dose: 200.0 mg/kg/injection, schedule: Q04DX002 (ip), vehicle: Klucel (hydroxypropylcellulose) (HPC)
[10] = dose: 400.0 mg/kg/injection, schedule: Q04DX002 (ip), vehicle: Klucel (hydroxypropylcellulose) (HPC)
[11] = dose: 200.0 mg/kg/injection, schedule: Q04DX003 (ip), vehicle: Klucel (hydroxypropylcellulose) (HPC)
[12] = dose: 400.0 mg/kg/injection, schedule: Q04DX003 (ip), vehicle: Klucel (hydroxypropylcellulose) (HPC)
[13] = dose: 200.0 mg/kg/injection, schedule: Q01DX009 (ip), vehicle: saline with Tween-80

CCC[CH2][Sn]([C]#[C][Sn]([CH2]CCC)([CH2]CCC)[CH2]CCC)([CH2]CCC)[CH2]CCC
survivor count (dose: 3.12 mg/kg/injection, schedule: Q01DX009 (ip), vehicle: saline): 6 of 6
survivor count (dose: 6.25 mg/kg/injection, schedule: Q01DX009 (ip), vehicle: saline): 3 of 6
survivor count (dose: 12.5 mg/kg/injection, schedule: Q01DX009 (ip), vehicle: Klucel (hydroxypropylcellulose) (HPC)): 2 of 6
survivor count (dose: 25.0 mg/kg/injection, schedule: Q01DX009 (ip), vehicle: Klucel (hydroxypropylcellulose) (HPC)): 4 of 6
survivor count (dose: 50.0 mg/kg/injection, schedule: Q04DX002 (ip), vehicle: saline): 1 of 3
survivor count [1]: 1 of 3 and 3 of 3
survivor count [2]: 1 of 3
survivor count [3]: 1 of 3

CCc1ccccc1NC(=O)Sc1ccccc1C
survivor count (dose: 400.0 mg/kg/injection, schedule: Q01DX009 (ip), vehicle: Klucel (hydroxypropylcellulose) (HPC)): 0 of 6

Cn1cnc([N+](=O)[O-])c1/N=C/c1ccccc1
survivor count (dose: 400.0 mg/kg/injection, schedule: Q01DX005 (ip), vehicle: saline): 0 of 3

O=C(CC=C(c1ccccc1)c1ccccc1)Nc1ccccc1
survivor count (dose: 400.0 mg/kg/injection, schedule: Q01DX001 (ip), vehicle: saline with Tween-80): 3 of 3

ClCCN1CCC2(CC1)SSC1(CCN(CCCl)CC1)S2
survivor count [4]: 0 of 6
survivor count (dose: 80.0 mg/kg/injection, schedule: Q01DX001 (ip), vehicle: Klucel (hydroxypropylcellulose) (HPC)): 2 of 6
survivor count (dose: 100.0 mg/kg/injection, schedule: Q01DX001 (ip), vehicle: Klucel (hydroxypropylcellulose) (HPC)): 1 of 6
survivor count (dose: 100.0 mg/kg/injection, schedule: Q04DX003 (ip), vehicle: saline): 0 of 6
survivor count (dose: 200.0 mg/kg/injection, schedule: Q01DX001 (ip), vehicle: Klucel (hydroxypropylcellulose) (HPC)): 0 of 6
survivor count [5]: 0 of 6
survivor count (dose: 400.0 mg/kg/injection, schedule: Q01DX001 (ip), vehicle: Klucel (hydroxypropylcellulose) (HPC)): 0 of 6
survivor count [6]: 0 of 6

Cc1ccc(NC(=O)N2CC2C)cc1NC(=O)N1CC1C (configuration not stated)
T/C (dose: 5.0 mg/kg/injection, schedule: Q01DX009 (ip), vehicle: saline): 133 % of control
T/C (dose: 10.0 mg/kg/injection, schedule: Q01DX009 (ip), vehicle: saline): 135, 140, 142 % of control
T/C [7]: 142 % of control
survivor count [7]: 5 of 6
survivor count [4]: 10 of 10 and 6 of 6
survivor count [1]: 1 of 3
survivor count [2]: 0 of 3
survivor count [3]: 0 of 3

Cc1ccc2c(C)c3c(ccc4ccccc43)c[n+]2c1
survivor count (dose: 30.0 mg/kg/injection, schedule: Q01DX015 (ip), vehicle: saline): 0 of 6
survivor count (dose: 40.0 mg/kg/injection, schedule: Q01DX001 (ip), vehicle: saline): 0 of 4
survivor count (dose: 45.0 mg/kg/injection, schedule: Q01DX015 (ip), vehicle: saline): 0 of 6
survivor count (dose: 65.0 mg/kg/injection, schedule: Q01DX015 (ip), vehicle: saline): 0 of 6
survivor count (dose: 80.0 mg/kg/injection, schedule: Q01DX001 (ip), vehicle: saline): 0 of 4
survivor count (dose: 100.0 mg/kg/injection, schedule: Q01DX001 (ip), vehicle: saline): 0 of 4
survivor count (dose: 200.0 mg/kg/injection, schedule: Q01DX001 (ip), vehicle: saline): 0 of 4
survivor count [8]: 0 of 4

O=C(Nc1ccc(C(=O)Nc2cc(S(=O)(=O)O)cc3cccc(S(=O)(=O)O)c23)cc1)Nc1ccc(C(=O)Nc2cc(S(=O)(=O)O)cc3cccc(S(=O)(=O)O)c23)cc1
survivor count (dose: 300.0 mg/kg/injection, schedule: Q01DX001 (ip), vehicle: carboxymethylcellulose (CMC)): 1 of 6

O=C(Nc1ccc(C2=NCCN2)cc1)Nc1ccccc1NC(=O)Nc1ccc(C2=NCCN2)cc1
survivor count (dose: 25.0 mg/kg/injection, schedule: Q01DX Z (ip), vehicle: water): 4 of 6 and 5 of 6
survivor count (dose: 50.0 mg/kg/injection, schedule: Q01DX Z (ip), vehicle: water): 0 of 6
survivor count (dose: 100.0 mg/kg/injection, schedule: Q01DX Z (ip), vehicle: water): 0 of 6
survivor count (dose: 200.0 mg/kg/injection, schedule: Q01DX Z (ip), vehicle: water): 0 of 6

C=CS(=O)(=O)c1ccc(C)cc1
survivor count [9]: 0 of 3
survivor count [10]: 0 of 3

O=[N+]([O-])c1ccc[nH]1
survivor count [5]: 3 of 6
survivor count [6]: 0 of 6

O=[N+]([O-])c1sc2ccccc2c1O
survivor count (dose: 50.0 mg/kg/injection, schedule: Q01DX009 (ip), vehicle: saline with Tween-80): 5 of 6

Cc1[nH]c(=S)[nH]c(=O)c1CC(O)c1ccccc1 (configuration not stated)
survivor count [11]: 6 of 6

C/C(=N\[N+](C)(C)C)c1ccc2ccccc2c1
survivor count [11]: 0 of 6
survivor count [12]: 0 of 6

OC(CNCCc1ccccc1)COc1cccc2ccccc12 (configuration not stated)
survivor count (dose: 100.0 mg/kg/injection, schedule: Q04DX003 (ip), vehicle: Klucel (hydroxypropylcellulose) (HPC)): 2 of 6
survivor count [11]: 0 of 6
survivor count [12]: 0 of 6

CSc1nc(NC(=O)CCl)cc(NC(=O)CCl)n1
T/C (dose: 50.0 mg/kg/injection, schedule: Q01DX005 (ip), vehicle: saline): 132 % of control [5 of 6 alive]
survivor count (dose: 100.0 mg/kg/injection, schedule: Q01DX005 (ip), vehicle: saline): 4 of 6
survivor count (dose: 200.0 mg/kg/injection, schedule: Q01DX005 (ip), vehicle: saline): 0 of 6

NC1CC[N-]CC1.NC1CC[N-]CC1.[Cl][Pt+2]([Cl])([Cl])[Cl]
survivor count (dose: 100.0 mg/kg/injection, schedule: Q01DX009 (ip), vehicle: saline): 3 of 6
survivor count (dose: 200.0 mg/kg/injection, schedule: Q01DX009 (ip), vehicle: saline): 0 of 6
survivor count [5]: 3 of 6
survivor count (dose: 400.0 mg/kg/injection, schedule: Q01DX009 (ip), vehicle: saline): 0 of 6
survivor count [6]: 0 of 6

Cc1ccc(C)c(CCC(C)CCCC(C)C)c1 (configuration not stated)
survivor count [8]: 3 of 6

CC([NH-])C(C)[NH-].[Cl][Pt+2][Cl] (configuration not stated)
T/C (dose: 12.5 mg/kg/injection, schedule: Q04DX002 (ip), vehicle: Klucel (hydroxypropylcellulose) (HPC)): 144 % of control
survivor count (dose: 25.0 mg/kg/injection, schedule: Q04DX002 (ip), vehicle: Klucel (hydroxypropylcellulose) (HPC)): 3 of 3
survivor count (dose: 50.0 mg/kg/injection, schedule: Q04DX002 (ip), vehicle: Klucel (hydroxypropylcellulose) (HPC)): 1 of 3 and 2 of 3
survivor count (dose: 100.0 mg/kg/injection, schedule: Q04DX002 (ip), vehicle: Klucel (hydroxypropylcellulose) (HPC)): 0 of 3 and 1 of 3
survivor count [9]: 0 of 3 and 1 of 3
survivor count [10]: 0 of 3

CC(C)(C)NC(=O)Oc1ccccc1C(=O)Nc1ccccc1
T/C (dose: 100.0 mg/kg/injection, schedule: Q01DX009 (ip), vehicle: saline with Tween-80): 97, 103 (2×), 104 % of control
T/C [13]: 118 % of control [4 of 6 alive]
survivor count [13]: 1 of 3, 2 of 3, 5 of 6
survivor count (dose: 400.0 mg/kg/injection, schedule: Q01DX009 (ip), vehicle: saline with Tween-80): 2 of 3 and 5 of 6

CSc1cccc[n+]1[O-]
survivor count [2]: 3 of 3

CC(=O)n1ccnc1/C=C\c1ccc([N+](=O)[O-])s1
survivor count [12]: 0 of 6
